Assay results: US6479459
Results are given in words; binding and its absence hold for the method and conditions named. Some binding calls cover weakened binding; strength is not graded here.

Sequences of proteins named here, by UniProt entry; tags and fusion partners are left off. A change or cut given only in a name is not applied to a line headed by its entry.
UniProt P52799: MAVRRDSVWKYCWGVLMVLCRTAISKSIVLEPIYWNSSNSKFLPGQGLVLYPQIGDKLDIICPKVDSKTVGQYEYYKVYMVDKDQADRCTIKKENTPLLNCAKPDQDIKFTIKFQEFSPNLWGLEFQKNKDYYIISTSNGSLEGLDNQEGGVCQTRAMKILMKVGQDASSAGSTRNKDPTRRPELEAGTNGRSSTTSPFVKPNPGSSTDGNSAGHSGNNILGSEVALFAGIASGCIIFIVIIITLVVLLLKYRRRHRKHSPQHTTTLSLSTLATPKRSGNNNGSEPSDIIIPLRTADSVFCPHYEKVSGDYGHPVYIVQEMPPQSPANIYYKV
UniProt P09759: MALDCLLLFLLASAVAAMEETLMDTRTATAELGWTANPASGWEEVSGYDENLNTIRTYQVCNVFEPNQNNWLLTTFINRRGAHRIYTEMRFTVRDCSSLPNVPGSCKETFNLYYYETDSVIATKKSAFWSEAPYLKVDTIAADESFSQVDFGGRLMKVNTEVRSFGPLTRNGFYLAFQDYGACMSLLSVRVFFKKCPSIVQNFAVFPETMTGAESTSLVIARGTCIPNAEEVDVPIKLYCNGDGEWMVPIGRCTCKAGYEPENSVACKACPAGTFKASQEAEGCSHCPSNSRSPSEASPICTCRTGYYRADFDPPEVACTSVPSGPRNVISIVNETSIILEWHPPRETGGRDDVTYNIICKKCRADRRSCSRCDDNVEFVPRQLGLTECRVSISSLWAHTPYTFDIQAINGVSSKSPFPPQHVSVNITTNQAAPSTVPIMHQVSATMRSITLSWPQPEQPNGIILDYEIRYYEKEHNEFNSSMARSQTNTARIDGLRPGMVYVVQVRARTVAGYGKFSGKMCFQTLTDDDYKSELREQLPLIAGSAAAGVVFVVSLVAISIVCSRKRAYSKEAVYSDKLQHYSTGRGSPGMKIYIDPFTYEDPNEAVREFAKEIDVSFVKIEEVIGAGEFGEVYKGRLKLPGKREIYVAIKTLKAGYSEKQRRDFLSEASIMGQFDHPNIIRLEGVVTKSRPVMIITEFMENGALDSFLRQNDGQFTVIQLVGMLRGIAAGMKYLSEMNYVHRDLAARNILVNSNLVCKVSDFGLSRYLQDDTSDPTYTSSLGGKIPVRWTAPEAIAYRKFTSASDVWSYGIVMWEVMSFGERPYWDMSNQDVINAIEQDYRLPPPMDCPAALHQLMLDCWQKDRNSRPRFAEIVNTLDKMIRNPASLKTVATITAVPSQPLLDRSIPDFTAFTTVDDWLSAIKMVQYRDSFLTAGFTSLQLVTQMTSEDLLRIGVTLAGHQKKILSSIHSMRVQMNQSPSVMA

Molecular target: human LERK-5 (recombinant, full length, expressed on the surface of transfected CV1-EBNA-1 cells) (human) (UniProt P52799)
Experiment: Refers to the cell binding assay of example 4 (elk/Fc on cells expressing LERK-5)

binding: binds
Substance: soluble elk/Fc fusion protein (rat elk extracellular domain fused to human IgG1 Fc) (from UniProt P09759 18-540; P01857 99-330)
